Data on two molecules can be found in article PMC10834545.

Protein sequences, listed by entry. Tags and fused reporters are not part of them.
UniProt P01106: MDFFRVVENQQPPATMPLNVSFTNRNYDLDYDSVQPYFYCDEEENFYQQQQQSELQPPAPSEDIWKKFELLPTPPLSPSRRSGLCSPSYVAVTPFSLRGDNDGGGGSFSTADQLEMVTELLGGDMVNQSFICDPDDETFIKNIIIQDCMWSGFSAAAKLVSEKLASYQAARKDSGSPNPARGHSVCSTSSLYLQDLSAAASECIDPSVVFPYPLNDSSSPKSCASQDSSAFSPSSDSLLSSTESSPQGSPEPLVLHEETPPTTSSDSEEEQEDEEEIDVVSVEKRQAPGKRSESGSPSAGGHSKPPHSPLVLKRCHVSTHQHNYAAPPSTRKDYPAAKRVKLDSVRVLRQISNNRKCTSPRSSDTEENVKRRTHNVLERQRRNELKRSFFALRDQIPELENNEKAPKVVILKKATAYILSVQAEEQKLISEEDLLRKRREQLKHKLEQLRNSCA

Assay [1] deals with T1, Flag-tagged follistatin-like 3 (FSTL3), overexpressed from lentivirus in FSTL3-OE HCT116 cells (UniProt O95633).
T1 sequence: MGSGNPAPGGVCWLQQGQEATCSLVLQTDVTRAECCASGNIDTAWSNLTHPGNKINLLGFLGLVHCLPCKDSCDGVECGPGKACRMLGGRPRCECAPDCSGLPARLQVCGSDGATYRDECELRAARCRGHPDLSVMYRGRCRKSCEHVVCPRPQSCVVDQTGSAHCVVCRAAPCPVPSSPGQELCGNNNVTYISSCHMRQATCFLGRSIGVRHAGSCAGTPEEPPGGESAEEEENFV
In words: co-IP; lysate (NP-40 lysis buffer) of FSTL3-OE HCT116 cells; IP with anti-Flag or anti-c-Myc antibody at 4 °C overnight, protein A/G magnetic beads, western blotting.

For assay [2], the target named is T2, Flag-FSTL3-(189–245aa) deletion (human) (UniProt O95633).
T2 sequence: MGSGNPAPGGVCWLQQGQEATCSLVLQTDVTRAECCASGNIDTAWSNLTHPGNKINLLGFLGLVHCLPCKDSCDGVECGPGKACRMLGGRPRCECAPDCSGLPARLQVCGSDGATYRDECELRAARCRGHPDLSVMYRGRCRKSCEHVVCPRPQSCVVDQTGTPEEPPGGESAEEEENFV
The assay is described as follows: co-IP; HCT116 cells transfected with plasmids of Flag-FSTL3 full-length or deletion constructs; IP with anti-Flag antibody, western blotting. Background: A western blot detects proteins with antibodies after separation by electrophoresis.

Assay [3] has as its target T3, Flag-FSTL3 full-length (human) (UniProt O95633).
T3 sequence: T1 sequence
The description is as above.

The target of assay [4] is HA-c-Myc full-length (human) (UniProt P01106). In words: co-IP; HCT116 cells transfected with plasmids of HA-c-Myc full-length or deletion constructs; IP with anti-HA antibody, western blotting.

No constants are given. Whether binding was seen depends on the method and setting. Binding seen in cells or lysates may run through a third protein. Some binding calls cover weakened binding; strength is not graded here. Tags and fused reporters may be left off the sequences shown.

Regarding “MYC proto-oncogene, bHLH transcription factor (c-Myc), endogenous in HCT116 cells (from UniProt P01106 1-454)”, the binding entry in assay [1], in assay [2] and in assay [3] was “binds” throughout.

B1: FSTL3 protein found with HA-c-Myc constructs in HCT116 cells (protein, UniProt O95633 27-263)
chain: T1 sequence
In the case of B1, the binding result in assay [4] is “binds”.
